Assay results: publication PMC8006279
No constants are given. Whether binding was seen depends on the method and setting. In cells and extracts the contact can be indirect. Some results given as binding are weak or reduced against the parent protein; the word gives no strength.

Chains of the proteins cited; added tags and fusions are not shown.
UniProt Q9WTL8: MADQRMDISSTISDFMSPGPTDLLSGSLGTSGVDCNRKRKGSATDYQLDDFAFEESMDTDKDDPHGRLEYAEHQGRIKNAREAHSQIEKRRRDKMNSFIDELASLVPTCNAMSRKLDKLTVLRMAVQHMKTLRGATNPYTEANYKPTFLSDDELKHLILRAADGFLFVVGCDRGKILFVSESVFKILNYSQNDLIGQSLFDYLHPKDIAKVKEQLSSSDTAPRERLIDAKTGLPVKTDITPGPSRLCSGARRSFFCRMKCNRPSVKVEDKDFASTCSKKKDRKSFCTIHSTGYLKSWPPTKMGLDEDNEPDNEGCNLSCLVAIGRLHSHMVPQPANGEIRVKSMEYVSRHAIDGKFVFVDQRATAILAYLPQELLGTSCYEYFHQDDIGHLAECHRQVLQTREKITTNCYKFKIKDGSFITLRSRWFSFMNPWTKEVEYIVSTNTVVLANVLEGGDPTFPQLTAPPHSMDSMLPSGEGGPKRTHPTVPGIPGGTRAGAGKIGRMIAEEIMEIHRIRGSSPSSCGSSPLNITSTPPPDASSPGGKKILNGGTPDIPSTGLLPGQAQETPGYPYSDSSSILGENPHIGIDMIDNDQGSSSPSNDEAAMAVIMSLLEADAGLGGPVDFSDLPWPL

Target: Brain and Muscle Arnt-Like Protein-1 (Bmal1) (mouse (endogenous in RAW264.7)) (UniProt Q9WTL8)
Assay: co-IP; lysate of LPS-induced RAW264.7 cells (M1 macrophages); Co-IP kit (BersinBio); protein A/G-MagBeads coupled with anti-Bmal1 and anti-S100A9 antibodies at 4°C overnight; nonspecific IgG as control; western blot

binding: binds
B1: S100A9 protein (protein, UniProt P31725 1-113)
chain: MANKAPSQMERSITTIIDTFHQYSRKEGHPDTLSKKEFRQMVEAQLATFMKKEKRNEALINDIMEDLDTNQDNQLSFEECMMLMAKLIFACHEKLHENNPRGHGHSHGKGCGK
